About 210 (0.4%) of roughly 52,000 sequences were called active.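 The calls were made as follows: active = gene whose silencing raises cell survival under the drug, median off-target-corrected z-score across its silencing RNAs 2 or more; inactive = the rest.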 Some of the results follow.

This assay in a line: Resistance to Poly (ADP-Ribose) Polymerase inhibitor: Gene Identification via Genome-wide siRNA Screen. The note with it: mouse BRCA2 R2336H ES cells, olaparib, CellTiter-Glo viability; active compounds read high. In short, it runs like this: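 Genome-wide siRNA screen (3 siRNAs/gene, 20 nM) in mouse ES cells carrying hypomorphic BRCA2 R2336H; olaparib 500 nM added 48 h post-transfection, CellTiter-Glo viability 72 h later. Normalized to plate-median negative control; MAD z-scores, gene median, seed-adjusted.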
For orientation: In ATP-based viability assays light output follows the ATP content of the culture.
As for GGGUAUAUAAGCAGCACCATT against Rdh9, the z-score is inactive: -0.965.

On to GGCCUUUUCUCAAGGAGAATT against Cadps2, for which the z-score is inactive: -1.33.

As for GGGUUCUGGACAAGAUGAATT against Gpi1, the z-score was inactive: -2.3.

With CGGAAUUGGUGAUCUUUGUTT against Olfr1104, the z-score is inactive: 0.294.

Take GGUGCUGAUCCUUCAAAGGTT against BC031901: the z-score is inactive: -0.614.

For the sequence GGCAAGGACCCUGACCUAUTT against Ccr4, the z-score is inactive: 1.08.

In the case of GGAGUAUGCUGUCAAAAUCTT against Mknk1, the z-score was inactive: 0.77.

CGCUGAAAUGGUGAAUAAATT against Recql: the z-score is inactive: -1.13.

Regarding CCGCACAAGAGGUAGAUACTT against Ddx5, the z-score is inactive: -2.06.

On to GGACCAUCAGUACCAGUUUTT against Trim28, for which the z-score is inactive: 0.13.

With GGCAAUACUGGAAGGGUGUTT against Eps15, the z-score is inactive: -0.568.

With GGAAAAGAAAACAGGAGAUTT against Edn3, the z-score is inactive: 0.573.

As to GCGGCGGAUAGUGUCACAUTT against Gmip, the z-score was inactive: -1.56.

On to GGAGGAGAUCCUUCAUUACTT against Psap, for which the z-score is inactive: 0.276.

Turning to CGUACACCGUAUUCAUGACTT against Rapgef5, the z-score is inactive: -0.893.

Take CCGUAAGCUGUCUCUUUGUTT against Pla2g4c: the z-score was inactive: -2.33.

GCGAAUCAGCACUUAUGGATT against Cd2ap: the z-score is inactive: 0.337.

Turning to GGACAGCCAAAUAGAAUAATT against Atrn, the z-score is inactive: -1.02.

Consider “GGAAAAUGACAGCGAAGAGTT against Hel308-pending”, for which the z-score was inactive: -2.48.

Take GGUCAGAUUAUGCUUUAGATT against Mrgpre: the z-score was inactive: 0.192.

Turning to GCUGCUUGCAUGCGUUACUTT against Btbd14a, the z-score was inactive: 0.891.

As for GGUCAAUCACUUAUAAUGUTT against Olfr771, the z-score is inactive: 0.252.

On to GGCCAAGUGCUCACAGUUCTT against Arpc1b, for which the z-score is inactive: 0.178.

As for GGCUGAAGAACCCUCCAAUTT against BC033606, the z-score is inactive: -0.647.

Consider “GGUGACAAUAAAUUUGGAUTT against 2310076O21Rik”, for which the z-score was inactive: -0.578.

Regarding GCUCCGAUAUCAUUUGUUUTT against Crh, the z-score was inactive: 1.58.

Take GGCUGUCUGUUAAGAUUAATT against Olfr181: the z-score was inactive: -0.433.

With GGGAGACUUUCCAUUUGGUTT against Ap3s1, the z-score was inactive: -1.77.

On to CCGAGCAGGAUUGCAUAUATT against Cspg5, for which the z-score is inactive: -0.858.

With GGUCAUGAUGGUAUUGUGCTT against Traf7, the z-score is inactive: 0.636.

As for GCUCUGAUUCAGCAAGAGUTT against Rshl1, the z-score was inactive: 0.444.

With GCAGAGGGUGCUUGUAACCTT against Hp, the z-score is inactive: -0.59.

For GGAUCAUGUCAUCACAAAATT against Fzd3, the z-score is inactive: 0.968.

On to GGAAAACAAGCCUAAGUCATT against Zfyve19, for which the z-score is inactive: -1.58.

Take CCUAUUAAUAUGGAAAGUGTT against Arcn1: the z-score is inactive: -2.41.

For the sequence GCUCGAGAGAUCAAUUUAATT against Olfr568, the z-score is inactive: 2.14.

Regarding “GCACGACGAGACAUUUUUGTT against 0610038D11Rik”, the z-score was inactive: 0.79.

With CGGGAAGCUUUCCUAAACUTT against Serpinb9d, the z-score is inactive: -1.09.

With UAAGUGUUGUCUUCCUUUUTT against Olfr1360, the z-score was inactive: -0.809.

GGGUUUGACCUGAUUUCUCTT against Col9a1: the z-score was inactive: 0.699.

With GAUUUUUCAAAUCUUUGGCTT against Plac8, the z-score is inactive: 0.557.

GGAACUAGAACCAGAGUCCTT against Mrpl54: the z-score was inactive: 0.631.

Regarding GGUGAUGGAAGAAAAUACCTT against Pcdhb22, the z-score is inactive: 1.63.

Regarding “GGGCUCUAAAAAGGAUUUUTT against A330064G03Rik”, the z-score was inactive: -2.19.

As to “GGUCUUACAGUGGAGAGCATT against 9630044M06”, the z-score was inactive: 0.883.

Turning to GGCCGAUGAUAAAAAUGAATT against Cnga1, the z-score was inactive: -0.469.

On to GGAAUCAUCGGUUCUGUGUTT against Cldn16, for which the z-score was inactive: -2.11.

As for GGCAGAUGUCAUCAAUGCUTT against Sas, the z-score is inactive: 0.555.

On to “GGAAGAUGAUUUCUCCUUCTT against 2900026A02Rik”, for which the z-score is inactive: -0.106.

Regarding GCUGUACGUGCUUGGUUAGTT against Isl1, the z-score is inactive: 0.371.

As for GGCCAUCUUCCUGUUUGUGTT against Gabarapl2, the z-score was inactive: 1.15.

For “CCAAUAGCUAGUCUCCUAGTT against 6430701C03Rik”, the z-score is inactive: 2.43.

Turning to CGUAGUUUUACAGAUCACUTT against Odz3, the z-score was inactive: -0.666.

Consider “GGACUAUGCCAAUGUCAGATT against 1700065O13Rik”, for which the z-score is inactive: 0.259.

Regarding “GGUGGCACAUAAGAAAUCCTT against Kiaa0298-hp”, the z-score was inactive: 2.01.

For GGUCAGUUCCUAGCUUCACTT against Gucy1b2, the z-score is inactive: 0.744.

Regarding GCUCUAAUCAAUCAGUUAATT against Lnpep, the z-score is inactive: 0.126.

On to CGGCAUUUGCUAAUGGUCGTT against Actl6a, for which the z-score is inactive: 1.53.

With GGAUCCCAGAUUGAAAACUTT against Rnf5, the z-score was inactive: 1.17.

Consider “GUCCCAAGAGGCUCAUUCUTT against 2300006N05Rik”, for which the z-score is inactive: -0.814.

As for GGUGUUGGAAACAAUCAGATT against Cd59a, the z-score was inactive: 0.22.

On to “GGAUAUGUUGCUCACAUAATT against 9830132L24”, for which the z-score was inactive: -0.216.

As to GGAAAAGAUGAAGACUACATT against Ifnar2, the z-score was inactive: -1.47.

As for GACUCUGCUUUUUGUGUUATT against Olfr958, the z-score is inactive: 1.71.

Regarding GCGGGAACCAUUUUUGUGATT against Cdh11, the z-score is inactive: -0.345.

GGAAGAUCCCAACAGUUUGTT against Prss11: the z-score was inactive: -0.102.

For “GGCAGGAAGGACAAUCAGUTT against D130067I03Rik”, the z-score was inactive: 0.694.

For the sequence GGACUGAAAGAAAUCAGAATT against Asxl2, the z-score is inactive: 0.959.

Regarding GGACUUCAACAACUGCUCUTT against Rpo1-4, the z-score was inactive: -1.89.

GGGCAACUUCCUCAGACAUTT against Cav2: the z-score was inactive: -1.35.

Regarding “GGCCCUAAUUUCAGUAAUATT against D430024F16Rik”, the z-score was inactive: -1.32.

Take GGGAAACAAGCAUCUUCUGTT against Bmp5: the z-score is inactive: -1.18.

As to “GGAAUAAAGUGUUGUGUCATT against 9230106L14Rik”, the z-score is inactive: 0.506.

With GGCUAAGAUUCAGGUCUUUTT against Crygs, the z-score was inactive: 0.262.

For the sequence GGUAAAAUGGAACUACAUGTT against Igf2bp3, the z-score was inactive: 0.173.

Regarding GGAUGAUGUUCCCAUGCAATT against BC006933, the z-score is inactive: -2.31.

As for “GGAUAACAGCACUUUCCAGTT against 2700062C07Rik”, the z-score was inactive: -0.372.

As for GAAGCUCAUAGUGACUGUCTT against V1rc8, the z-score is inactive: -1.95.

For the sequence CCGUUACCUUUUAAGCCUGTT against Socs6, the z-score is inactive: -1.01.

With GGCCUUAGAUAGUUACAUATT against LOC209380, the z-score is inactive: -0.061.

Take GGAAAACACGUUCACUAUATT against Statip1: the z-score is inactive: -0.794.

As to GGUAUGAUUGAAUUUCGUGTT against Purg, the z-score was inactive: -0.553.

Consider “GCCACCUCUUAUGAGGCUUTT against D630045E04Rik”, for which the z-score is inactive: -1.04.

As for GCUCUCUCCUGCGCUAAAUTT against Camta2, the z-score was inactive: 4.41.

Take CCAUUUAACCUGAUUCUGUTT against Cntn1: the z-score is inactive: 0.367.

In the case of GGACAACUAUGAAUUAGUGTT against Pfkp, the z-score was inactive: -0.587.

Take “CCUUAUGUGCACUAUAGCCTT against 1700028K03Rik”: the z-score was inactive: 1.4.

Consider GGAUUGAGCAGUGUCUAGUTT against Otos, for which the z-score was inactive: -0.622.

Regarding GGUAGAACUGGAGUAUUCUTT against Arhgap4, the z-score was inactive: 1.22.

As to GGUCUCAAAUGAAACAAACTT against Upk3b, the z-score is inactive: -0.362.

For the sequence CGAGACACACCUAAAUAUGTT against Nol5, the z-score is inactive: 0.582.

For GCCCUCAUUUGUCCUACAUTT against Arhgef2, the z-score was inactive: 0.0228.

“CCUCAAGAGAGCUACCGCATT against 1700018C11Rik”: the z-score was inactive: 0.313.

Consider GGCUUUUGUCAAGCAGCACTT against Ins2, for which the z-score is inactive: -0.405.

Regarding GGCUCUGCUGAAUAACCUGTT against Gcnt3, the z-score is inactive: 0.208.

With “GCAAGCAGAUCUGAUAUCATT against 2700050F09Rik”, the z-score is active: 4.76.

For CGACCAAUGGGACAAUGCATT against Prss12, the z-score was inactive: 0.977.

As for “GGUUACAGCACUGAUUGUUTT against 2510006C20Rik”, the z-score was inactive: -1.97.

As for GCUAUUUCAGGCACAAUAATT against Srprb, the z-score is inactive: 0.681.

Take GCAGUCAUGAGAAAUACUATT against Irak1: the z-score was inactive: -1.12.

For the sequence GGGAAUACAUUUUAUCUUCTT against Cpox, the z-score was inactive: -0.0687.

Turning to GGCAAUGCUGUCCUACUAUTT against Map2k5, the z-score is inactive: 0.181.

Regarding “GGACUGAAGUGAAAUAAAUTT against B230359F08Rik”, the z-score is inactive: 0.692.

CCAUCCUUGUUUUGUUAAUTT against Tnfrsf6: the z-score was inactive: 2.28.

These data come from PubChem BioAssay AID1347423 (Functional Genomics Laboratory (NCATS/FGL), 2020).
